Among the data in paper PMC6515687 are binding values, retold here.

These are yes or no findings as the source states them, for the method shown. In cells and extracts the contact can be indirect. A result given as binding can be weak or reduced; the word gives no strength. Tags and fused reporters may be left off the sequences shown.

Common to all, as to test: co-IP; FLAG-MOV10 co-expressed with HA-SRSF1, HA-DDX5 or HA-DDX17 in HEK293T, 48 h; lysis in 50 mM Tris, 150 mM NaCl, 1 mM EDTA, 0.5% Triton, 10% glycerol; IP with anti-FLAG or anti-HA on protein A beads, 4 °C 3 h; western blot with anti-FLAG and anti-HA
For orientation: A western blot detects proteins with antibodies after separation by electrophoresis.

Assay [1] deals with T1, FLAG-MOV10 (mouse) (UniProt P23249).
T1 sequence: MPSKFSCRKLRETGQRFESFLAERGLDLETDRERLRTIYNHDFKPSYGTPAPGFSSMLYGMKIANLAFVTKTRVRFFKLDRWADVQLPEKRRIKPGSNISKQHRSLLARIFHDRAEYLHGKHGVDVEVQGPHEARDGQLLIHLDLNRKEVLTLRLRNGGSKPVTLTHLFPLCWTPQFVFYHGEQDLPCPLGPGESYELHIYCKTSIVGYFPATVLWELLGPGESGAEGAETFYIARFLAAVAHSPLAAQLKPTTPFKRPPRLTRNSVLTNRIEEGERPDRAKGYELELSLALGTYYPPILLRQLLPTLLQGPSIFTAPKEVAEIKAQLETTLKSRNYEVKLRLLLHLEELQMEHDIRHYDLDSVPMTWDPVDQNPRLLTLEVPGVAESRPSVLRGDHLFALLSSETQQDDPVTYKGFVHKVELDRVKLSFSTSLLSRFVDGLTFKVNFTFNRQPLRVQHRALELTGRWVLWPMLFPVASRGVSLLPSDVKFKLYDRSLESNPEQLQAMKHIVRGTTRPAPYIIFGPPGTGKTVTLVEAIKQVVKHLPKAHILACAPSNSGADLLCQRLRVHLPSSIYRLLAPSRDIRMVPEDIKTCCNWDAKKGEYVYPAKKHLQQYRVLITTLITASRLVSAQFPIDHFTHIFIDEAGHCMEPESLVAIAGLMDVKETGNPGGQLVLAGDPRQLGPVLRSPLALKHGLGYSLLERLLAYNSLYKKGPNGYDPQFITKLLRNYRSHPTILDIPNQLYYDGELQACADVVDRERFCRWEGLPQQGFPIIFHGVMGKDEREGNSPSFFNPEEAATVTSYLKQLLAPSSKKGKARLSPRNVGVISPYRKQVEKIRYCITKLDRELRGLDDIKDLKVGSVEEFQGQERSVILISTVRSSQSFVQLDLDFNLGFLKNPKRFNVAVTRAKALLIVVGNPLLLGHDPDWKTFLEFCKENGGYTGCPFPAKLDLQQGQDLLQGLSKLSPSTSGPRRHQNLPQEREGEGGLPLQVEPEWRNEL

The target in assay [2] is HA-DDX5 (mouse).
For assay [3], the target named is HA-DDX17 (mouse).

As for HA-DDX5 (mouse), the binding result in assay [1] was “binds”.

B1: FLAG-MOV10 (protein, UniProt P23249 1-1004)
chain: MPSKFSCRKLRETGQRFESFLAERGLDLETDRERLRTIYNHDFKPSYGTPAPGFSSMLYGMKIANLAFVTKTRVRFFKLDRWADVQLPEKRRIKPGSNISKQHRSLLARIFHDRAEYLHGKHGVDVEVQGPHEARDGQLLIHLDLNRKEVLTLRLRNGGSKPVTLTHLFPLCWTPQFVFYHGEQDLPCPLGPGESYELHIYCKTSIVGYFPATVLWELLGPGESGAEGAETFYIARFLAAVAHSPLAAQLKPTTPFKRPPRLTRNSVLTNRIEEGERPDRAKGYELELSLALGTYYPPILLRQLLPTLLQGPSIFTAPKEVAEIKAQLETTLKSRNYEVKLRLLLHLEELQMEHDIRHYDLDSVPMTWDPVDQNPRLLTLEVPGVAESRPSVLRGDHLFALLSSETQQDDPVTYKGFVHKVELDRVKLSFSTSLLSRFVDGLTFKVNFTFNRQPLRVQHRALELTGRWVLWPMLFPVASRGVSLLPSDVKFKLYDRSLESNPEQLQAMKHIVRGTTRPAPYIIFGPPGTGKTVTLVEAIKQVVKHLPKAHILACAPSNSGADLLCQRLRVHLPSSIYRLLAPSRDIRMVPEDIKTCCNWDAKKGEYVYPAKKHLQQYRVLITTLITASRLVSAQFPIDHFTHIFIDEAGHCMEPESLVAIAGLMDVKETGNPGGQLVLAGDPRQLGPVLRSPLALKHGLGYSLLERLLAYNSLYKKGPNGYDPQFITKLLRNYRSHPTILDIPNQLYYDGELQACADVVDRERFCRWEGLPQQGFPIIFHGVMGKDEREGNSPSFFNPEEAATVTSYLKQLLAPSSKKGKARLSPRNVGVISPYRKQVEKIRYCITKLDRELRGLDDIKDLKVGSVEEFQGQERSVILISTVRSSQSFVQLDLDFNLGFLKNPKRFNVAVTRAKALLIVVGNPLLLGHDPDWKTFLEFCKENGGYTGCPFPAKLDLQQGQDLLQGLSKLSPSTSGPRRHQNLPQEREGEGGLPLQVEPEWRNEL
B1: the binding result in assay [2] and in assay [3] was “binds” throughout.
